The results in this text go back to patent publication US20240368279A1.

Chains of the proteins cited; added tags and fusions are not shown. Residues count along the entry.
UniProt Q61735, residues 19-303: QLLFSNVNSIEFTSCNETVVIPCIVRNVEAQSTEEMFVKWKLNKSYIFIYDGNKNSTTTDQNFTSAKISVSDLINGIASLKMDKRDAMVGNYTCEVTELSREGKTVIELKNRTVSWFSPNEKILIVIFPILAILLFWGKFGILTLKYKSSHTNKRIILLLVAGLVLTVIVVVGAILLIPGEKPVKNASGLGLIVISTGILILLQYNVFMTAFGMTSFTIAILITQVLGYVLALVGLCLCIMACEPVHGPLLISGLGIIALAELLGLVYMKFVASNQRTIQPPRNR

No constants are given. Whether binding was seen depends on the method and setting. Some binding calls cover weakened binding; strength is not graded here.

The target of the test is murine CD47 on B16 melanoma cells (mouse) (UniProt Q61735). Description: flow cytometry on B16 melanoma cells. (Flow cytometry measures light scatter and fluorescence of single cells or particles in a stream.)

B1: Hu004-73 antibody (full-length human IgG1, kappa) (antibody, V domains shown)
VH: EVQLVESGGGLVQPGGSLRLSCAASGFTFSGYGMSWVRQAPGKGLEWVATITSGGTYTYYPDSVKGRFTISRDNAKNSLYLQMNSLRAEDTAVYYCARSLAGNAMDYWGQGTLVTVSS
VL: DIQMTQSPSSLSASVGDRVTITCRAGQPLNNYLNWYQQKPGKPPRLLIYAASTLQSGVPSRFSGSGSGTDFTLTISGLQSEDFASYFCQHRVTFGPGTKVDVR
For the molecule B1, the binding entry was “binds”.
